Results are given in words; binding and its absence hold for the method and conditions named. In cells and extracts the contact can be indirect. Some results given as binding are weak or reduced against the parent protein; the word gives no strength.
Experiments:
CB1-NlucC (human) [1] = target: CB1-NlucC (human) (UniProt P21554); test: FRET or BRET; as a2, CB1-NlucC and NES-venus-β-arrestin2, with L759633 as the agonist
CB1-NlucC (human) [2] = target: CB1-NlucC (human) (UniProt P21554); test: FRET or BRET; as a2, CB1-NlucC and NES-venus-β-arrestin2, with Cannabinol as the agonist
CB1-NlucC (human) [3] = target: CB1-NlucC (human) (UniProt P21554); test: FRET or BRET; HEK293-TR cells stably co-expressing CB1-NlucC and NES-venus-mGsi or NES-venus-β-arrestin2; agonists (THC, analogs, 2AG, AEA) added, 37 °C, furimazine 10 μM, HBSS with 0.5% BSA and 5 mM HEPES; responses normalised to 2AG

Protein sequences, listed by entry. Tags and fused reporters are not part of them.
UniProt P21554: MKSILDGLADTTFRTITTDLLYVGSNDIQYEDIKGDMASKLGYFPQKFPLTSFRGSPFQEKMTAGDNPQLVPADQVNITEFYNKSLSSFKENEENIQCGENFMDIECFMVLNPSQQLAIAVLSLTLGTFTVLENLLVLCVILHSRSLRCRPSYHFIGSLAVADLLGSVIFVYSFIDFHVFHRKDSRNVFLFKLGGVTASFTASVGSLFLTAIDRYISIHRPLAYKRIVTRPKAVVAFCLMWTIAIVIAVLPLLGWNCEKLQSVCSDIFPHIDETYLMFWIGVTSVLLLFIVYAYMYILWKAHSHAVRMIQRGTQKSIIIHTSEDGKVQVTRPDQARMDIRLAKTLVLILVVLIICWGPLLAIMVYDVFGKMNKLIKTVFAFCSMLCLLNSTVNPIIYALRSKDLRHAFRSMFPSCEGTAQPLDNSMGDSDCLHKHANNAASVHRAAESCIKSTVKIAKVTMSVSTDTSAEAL
UniProt P32121: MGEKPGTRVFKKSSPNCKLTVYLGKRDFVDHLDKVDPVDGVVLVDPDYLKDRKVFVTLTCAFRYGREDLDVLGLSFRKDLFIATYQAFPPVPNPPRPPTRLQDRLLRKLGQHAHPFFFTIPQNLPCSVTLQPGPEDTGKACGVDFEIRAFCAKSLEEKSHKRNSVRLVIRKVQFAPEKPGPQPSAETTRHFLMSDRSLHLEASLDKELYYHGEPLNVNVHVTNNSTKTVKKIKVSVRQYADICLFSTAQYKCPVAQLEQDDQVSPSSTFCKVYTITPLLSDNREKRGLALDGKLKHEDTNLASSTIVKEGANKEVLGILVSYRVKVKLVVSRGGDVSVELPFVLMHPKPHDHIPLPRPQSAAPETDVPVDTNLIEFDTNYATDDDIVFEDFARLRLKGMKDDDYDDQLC

binding (CB1-NlucC (human) [1]): binds weakly
binding (CB1-NlucC (human) [3]): binds
Substance: NES-venus-β-arrestin2 (from UniProt P32121 1-409)
binding (CB1-NlucC (human) [2]): no binding (condition: with Cannabinol as the agonist)

From paper PMC11142349
